Measured values taken from paper PMC4493090.
Results are given in words; binding and its absence hold for the method and conditions named. Binding can be weak; no strength is given. For some assays here: Binding seen in cells or lysates may run through a third protein.

The chains behind the UniProt entries cited, without tags or fusion partners. Where a name states a change or a piece, a line headed by the entry shows the natural chain unless it says otherwise. A line that says so, or that is headed by a name, gives the form on record, which may keep a tag or linker. Residues count along the entry.
UniProt Q8C863: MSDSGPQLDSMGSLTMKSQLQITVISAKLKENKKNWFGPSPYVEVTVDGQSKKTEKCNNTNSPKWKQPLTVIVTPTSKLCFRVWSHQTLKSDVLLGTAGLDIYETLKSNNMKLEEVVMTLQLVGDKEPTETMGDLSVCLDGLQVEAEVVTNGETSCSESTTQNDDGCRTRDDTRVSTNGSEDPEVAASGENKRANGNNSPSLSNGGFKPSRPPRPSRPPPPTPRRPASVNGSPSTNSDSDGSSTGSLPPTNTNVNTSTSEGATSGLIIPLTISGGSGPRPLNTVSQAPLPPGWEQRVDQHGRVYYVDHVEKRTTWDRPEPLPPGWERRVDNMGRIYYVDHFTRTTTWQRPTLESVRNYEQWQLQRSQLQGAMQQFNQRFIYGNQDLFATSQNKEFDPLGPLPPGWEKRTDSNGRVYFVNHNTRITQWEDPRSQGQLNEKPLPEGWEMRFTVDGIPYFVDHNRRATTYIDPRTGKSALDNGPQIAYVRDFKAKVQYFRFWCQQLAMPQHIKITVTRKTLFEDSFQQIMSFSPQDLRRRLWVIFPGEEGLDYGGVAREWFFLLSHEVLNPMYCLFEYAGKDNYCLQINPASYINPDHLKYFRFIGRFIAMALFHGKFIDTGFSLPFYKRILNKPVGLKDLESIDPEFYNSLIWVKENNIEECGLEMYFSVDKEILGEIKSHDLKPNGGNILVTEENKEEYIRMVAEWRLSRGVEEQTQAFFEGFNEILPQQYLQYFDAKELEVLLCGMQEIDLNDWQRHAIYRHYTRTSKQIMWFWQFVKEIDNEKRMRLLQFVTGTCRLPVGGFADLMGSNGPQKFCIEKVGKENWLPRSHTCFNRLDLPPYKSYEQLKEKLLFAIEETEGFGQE
Itch-Δ-HECT (aa 1–477): residues 1-477 of Q8C863
Itch-Δ-C2 (aa 274–806): residues 274-806 of Q8C863
Myc-tagged WW-domains of Itch (aa 274–477): residues 274-477 of Q8C863
Myc-tagged WW-domains of NEDD4 (P46935, residues 238-497): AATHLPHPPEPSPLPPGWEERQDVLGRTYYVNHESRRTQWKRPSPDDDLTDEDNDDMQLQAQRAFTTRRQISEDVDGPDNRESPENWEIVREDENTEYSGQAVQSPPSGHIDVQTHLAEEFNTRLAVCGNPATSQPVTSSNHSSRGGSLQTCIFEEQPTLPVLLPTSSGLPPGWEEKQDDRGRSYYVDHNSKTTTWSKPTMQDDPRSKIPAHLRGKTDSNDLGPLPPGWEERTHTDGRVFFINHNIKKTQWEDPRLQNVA
Nedd4 (393–444), two-hybrid prey (P46935, residues 393-444): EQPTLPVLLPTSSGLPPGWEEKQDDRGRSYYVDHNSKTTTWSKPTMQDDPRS
UniProt Q9HAU4: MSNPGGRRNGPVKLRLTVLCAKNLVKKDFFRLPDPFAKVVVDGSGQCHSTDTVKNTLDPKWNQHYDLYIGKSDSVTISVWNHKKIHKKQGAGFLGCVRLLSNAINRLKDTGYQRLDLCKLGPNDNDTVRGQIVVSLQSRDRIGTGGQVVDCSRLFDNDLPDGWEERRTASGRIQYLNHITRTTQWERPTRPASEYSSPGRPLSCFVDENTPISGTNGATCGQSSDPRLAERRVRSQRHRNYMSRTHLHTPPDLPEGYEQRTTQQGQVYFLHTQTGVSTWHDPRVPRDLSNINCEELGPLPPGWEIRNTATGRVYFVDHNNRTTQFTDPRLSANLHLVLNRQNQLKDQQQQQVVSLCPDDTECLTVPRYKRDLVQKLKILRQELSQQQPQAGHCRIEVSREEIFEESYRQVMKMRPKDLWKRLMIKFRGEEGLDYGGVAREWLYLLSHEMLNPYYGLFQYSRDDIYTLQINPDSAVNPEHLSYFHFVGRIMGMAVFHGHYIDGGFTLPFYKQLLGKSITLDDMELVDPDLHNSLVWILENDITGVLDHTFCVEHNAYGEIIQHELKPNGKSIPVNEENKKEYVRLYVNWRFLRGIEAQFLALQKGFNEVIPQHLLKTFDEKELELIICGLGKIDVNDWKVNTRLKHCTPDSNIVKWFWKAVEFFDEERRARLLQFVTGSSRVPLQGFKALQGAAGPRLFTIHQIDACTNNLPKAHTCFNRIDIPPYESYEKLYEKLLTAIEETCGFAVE
Myc-tagged WW-domains of Smurf2: residues 143-334 of Q9HAU4
UniProt Q6XP49: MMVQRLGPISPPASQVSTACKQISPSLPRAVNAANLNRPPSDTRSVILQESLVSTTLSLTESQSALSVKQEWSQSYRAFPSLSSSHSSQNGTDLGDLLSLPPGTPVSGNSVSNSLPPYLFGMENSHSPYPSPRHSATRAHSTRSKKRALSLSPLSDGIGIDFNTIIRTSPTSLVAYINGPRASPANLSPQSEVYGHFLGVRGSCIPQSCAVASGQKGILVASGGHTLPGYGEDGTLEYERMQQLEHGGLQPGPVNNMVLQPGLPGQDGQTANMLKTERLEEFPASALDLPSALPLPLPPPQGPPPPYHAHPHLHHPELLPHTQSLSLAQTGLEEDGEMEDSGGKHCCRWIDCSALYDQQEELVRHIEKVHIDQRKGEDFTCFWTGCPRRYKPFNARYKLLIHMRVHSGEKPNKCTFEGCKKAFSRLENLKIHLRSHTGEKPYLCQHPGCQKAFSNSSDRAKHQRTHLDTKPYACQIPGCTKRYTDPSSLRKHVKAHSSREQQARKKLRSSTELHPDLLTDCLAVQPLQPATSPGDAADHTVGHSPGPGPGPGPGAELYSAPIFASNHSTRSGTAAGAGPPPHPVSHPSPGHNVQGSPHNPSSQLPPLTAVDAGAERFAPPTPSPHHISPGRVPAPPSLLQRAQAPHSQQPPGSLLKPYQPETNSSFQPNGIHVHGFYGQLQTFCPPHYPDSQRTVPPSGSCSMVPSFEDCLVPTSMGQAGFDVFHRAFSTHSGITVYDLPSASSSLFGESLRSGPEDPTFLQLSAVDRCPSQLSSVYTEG
UniProt A2A5Z6, residues 150-328: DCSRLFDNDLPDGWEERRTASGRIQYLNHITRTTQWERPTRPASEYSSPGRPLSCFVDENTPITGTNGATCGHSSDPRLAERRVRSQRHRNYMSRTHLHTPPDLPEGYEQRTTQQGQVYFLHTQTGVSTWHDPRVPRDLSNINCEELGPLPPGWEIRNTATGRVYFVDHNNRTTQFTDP
UniProt Q9DBH0, residues 395-453: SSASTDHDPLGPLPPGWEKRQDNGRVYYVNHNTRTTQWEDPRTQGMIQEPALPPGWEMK

Key:
Myc-Itch-C832G (mouse) = Myc-Itch-C832G (mouse) (UniProt Q8C863); experiment: co-IP; HEK293T co-transfected with FLAG-Glis3 constructs and Myc-tagged ligases; lysis in 25 mM Tris, 150 mM NaCl, 1 mM EDTA, 1 mM EGTA, 0.5% Nonidet P-40; IP with anti-Myc on Dynabeads, 10 min RT; blot with anti-M2 FLAG-HRP
Myc-NEDD4-C867G = Myc-NEDD4-C867G (UniProt P46935); experiment: as above
Myc-Smurf2-C716G = Myc-Smurf2-C716G (UniProt Q9HAU4); experiment: as above
Myc-Itch (mouse) = Myc-Itch (mouse) (UniProt Q8C863); experiment: as above
[1] = target: Myc-tagged WW-domains of Itch (aa 274–477) (mouse) (UniProt Q8C863); experiment: as above
[2] = target: Myc-tagged WW-domains of Smurf2 (aa 143–334) (UniProt Q9HAU4); experiment: as above
[3] = target: Myc-tagged WW-domains of NEDD4 (aa 238–497) (UniProt P46935); experiment: as above
[4] = target: Itch-Δ-HECT (aa 1–477) (mouse) (UniProt Q8C863); experiment: as above
[5] = target: Itch-Δ-C2 (aa 274–806) (mouse) (UniProt Q8C863); experiment: as above
[6] = target: Glis3(2–500)-LexA fusion protein (mouse) (UniProt F6SGN4); experiment: two-hybrid; Hybrigenics screen; Glis3 N-terminus-LexA bait (pB27) against a murine pancreatic beta cell (βTC-TET) library in p6; medium without His, Leu, Trp, with 5.0 mM 3-aminotriazole
TnT-Myc Itch (mouse) = TnT-Myc Itch (mouse) (UniProt Q8C863); experiment: pull-down; both proteins transcribed and translated in vitro (TNT); Myc-Itch held on anti-Myc Dynabeads in PBS (30 min RT), FLAG-Glis3 or PY^461 mutant added overnight at 4°C; blot with anti-M2 FLAG-HRP

| binding (Myc-Itch-C832G (mouse)) | binding (Myc-NEDD4-C867G) | binding (Myc-Smurf2-C716G) | binding [6] | Substance | further results |
| --- | --- | --- | --- | --- | --- |
| binds | binds | binds |  | FLAG-Glis3-ΔC480 (from UniProt Q6XP49) (domain or fragment) |  |
| no binding | no binding | no binding |  | FLAG-Glis3-ΔC480 PY^461 mutant (from UniProt Q6XP49) (domain or fragment) |  |
| binds | no binding | binds weakly |  | FLAG-tagged Glis3 (pCMV10-3xFLAG-Glis3) (from UniProt F6SGN4) | binding (Myc-Itch (mouse)): binds; binding [1]: binds; binding [2]: binds; binding [3]: binds; binding [4]: binds; binding [5]: binds |
|  |  |  | binds | Itch (224–462), two-hybrid prey (from UniProt Q8C863 224-462) (domain or fragment) |  |
|  |  |  | binds | Nedd4 (393–444), two-hybrid prey (from UniProt P46935 393-444) (domain or fragment) |  |
|  |  |  | binds | Smurf2 (150–328), two-hybrid prey (from UniProt A2A5Z6 150-328) (domain or fragment) |  |
|  |  |  |  | TnT-FLAG Glis3 (from UniProt F6SGN4) | binding (TnT-Myc Itch (mouse)): binds |
|  |  |  | binds | Wwp2 (395–453), two-hybrid prey (from UniProt Q9DBH0 395-453) (domain or fragment) |  |
